This data set relates to osteoblasts (monolayer culture). The experiment in a line: TEM ultrastructure, monolayer osteoblast cell culture. Format: cell-based, rat. Particulars: control vs 10 mM, 20 mM creatine, 1 mM, 5 mM GPA.

Consider `N=C(N)NCCC(=O)O` [GPA, beta-guanidinopropionic acid], for which the “ultrastructure (TEM)” value is given as “no obvious differences”.
`CN(CC(=O)O)C(=N)N` [creatine]: the “ultrastructure (TEM)” value is on record as “no obvious differences”.
